PubChem BioAssay AID1671195 – Yale University | 2021

Purpose: 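Knockdowns that increase or decrease uptake of fluorescent LDL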 (primary screen)
Cell system: human Huh7 hepatoma cells
Knock-down reagent: siRNA pool against human genes, 18 nM
Time to read-out: about 2 to 2.5 days of knockdown, then 8 h LDL uptake
Challenge: DiI-labelled LDL at 30 µg/ml for 8 h, in lipoprotein-deficient serum medium
Measurement: 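Per-cell DiI-LDL intensity by automated imaging; well means scaled to the plate median and given as a robust z-score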
Reading the numbers: robust z-score: higher = more LDL uptake after knockdown
Rule for the call: 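a gene counts as active if at least two replicate z-scores exceed ±2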
This is one part, drawn at random, of about 22,000 deposited reagents. About 1,510 of all reagents (6.9%) count as active. 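Active includes knockdowns raising or lowering LDL uptake; positive z-scores mean more uptake, negative mean less.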

gene | PubChem SID | robust z-score, replicate 1 | robust z-score, replicate 2 | robust z-score, replicate 3 | activity call
HDLBP (high density lipoprotein binding protein) | SID442903970 | -1.38 | -1.67 | -1.3 | inactive
LOC440885 (retired record) | SID442897174 | -0.352 | -0.435 | -0.279 | inactive
ZNF740 (zinc finger protein 740) | SID442898902 | -0.636 | -0.617 | -0.404 | inactive
ST7L (suppression of tumorigenicity 7 like) | SID442886510 | 1.22 | 0.38 | 1.83 | inactive
USP5 (ubiquitin specific peptidase 5) | SID442902220 | -1.39 | -0.539 | -1.17 | inactive
OGT (O-linked N-acetylglucosamine (GlcNAc) transferase) | SID442886322 | 0.625 | 2.36 | 0.591 | inactive
TMC4 (transmembrane channel like 4) | SID442898900 | -0.22 | -0.373 | -1.06 | inactive
RALBP1 (ralA binding protein 1) | SID442887352 | 1.02 | 1.03 | 0.745 | inactive
DAGLA (diacylglycerol lipase alpha) | SID442899249 | -0.923 | 0.065 | -0.93 | inactive
MUCL1 (mucin like 1) | SID442898889 | -0.281 | -0.745 | -0.627 | inactive
P4HB (prolyl 4-hydroxylase subunit beta) | SID442887347 | 0.805 | 0.197 | 1.8 | inactive
LOC253662 (retired record) | SID442898101 | -0.507 | -0.516 | -0.359 | inactive
USPL1 (ubiquitin specific peptidase like 1) | SID442894931 | 0.295 | -0.749 | 0.108 | inactive
GZMM (granzyme M) | SID442898231 | -0.657 | -0.346 | -0.424 | inactive
CBX8 (chromobox 8) | SID442897523 | -0.913 | -0.394 | 0.121 | inactive
AFF2 (ALF transcription elongation factor 2) | SID442892275 | 0.735 | 0.418 | -0.589 | inactive
TBX21 (T-box transcription factor 21) | SID442886923 | 0.558 | 1.2 | 1.32 | inactive
SAMM50 (SAMM50 sorting and assembly machinery component) | SID442902901 | -0.695 | -1.74 | -1.08 | inactive
DNAAF8 (dynein axonemal assembly factor 8) | SID442903356 | -1.48 | -0.901 | -1.46 | inactive
ZNF672 (zinc finger protein 672) | SID442900542 | -0.663 | -0.754 | -0.902 | inactive
LOC441348 (retired record) | SID442894401 | 0.221 | -0.156 | -0.244 | inactive
MAGEC3 (MAGE family member C3) | SID442903064 | -2.19 | -1.13 | -0.3 | inactive
STAT1 (signal transducer and activator of transcription 1) | SID442895827 | -0.557 | -0.393 | 0.319 | inactive
C1orf141 (chromosome 1 open reading frame 141) | SID442901662 | -0.882 | -1.01 | -0.919 | inactive
ATP6V0A1 (ATPase H+ transporting V0 subunit a1) | SID442903243 | -1.26 | -1.14 | -1.36 | inactive
RPL14 (ribosomal protein L14) | SID442884260 | -2.04 | -0.504 | -2.18 | active
CTF1 (cardiotrophin 1) | SID442897284 | -0.77 | 0.134 | -0.469 | inactive
KCND2 (potassium voltage-gated channel subfamily D member 2) | SID442903012 | -1.11 | -1.23 | -1.24 | inactive
TRUB2 (TruB pseudouridine synthase family member 2) | SID442899593 | -1.04 | -0.693 | -0.195 | inactive
AZIN2 (antizyme inhibitor 2) | SID442901145 | -1.33 | -0.279 | -0.964 | inactive
MBD6 (methyl-CpG binding domain protein 6) | SID442888405 | 1.69 | 0.386 | 0.0994 | inactive
SALL2 (spalt like transcription factor 2) | SID442889221 | 0.049 | 0.225 | 1.51 | inactive
RPS2P11 (ribosomal protein S2 pseudogene 11) | SID442891465 | 0.467 | 0.501 | -0.119 | inactive
ZNF175 (zinc finger protein 175) | SID442891354 | 0.654 | 0.106 | 0.13 | inactive

6 entries from above, ordered by “robust z-score, replicate 2”, descending.
gene | PubChem SID | robust z-score, replicate 1 | robust z-score, replicate 2 | robust z-score, replicate 3 | activity call
TBX21 (T-box transcription factor 21) | SID442886923 | 0.558 | 1.2 | 1.32 | inactive
AFF2 (ALF transcription elongation factor 2) | SID442892275 | 0.735 | 0.418 | -0.589 | inactive
CBX8 (chromobox 8) | SID442897523 | -0.913 | -0.394 | 0.121 | inactive
ZNF672 (zinc finger protein 672) | SID442900542 | -0.663 | -0.754 | -0.902 | inactive
DNAAF8 (dynein axonemal assembly factor 8) | SID442903356 | -1.48 | -0.901 | -1.46 | inactive
SAMM50 (SAMM50 sorting and assembly machinery component) | SID442902901 | -0.695 | -1.74 | -1.08 | inactive

The list goes on.
gene | PubChem SID | robust z-score, replicate 1 | robust z-score, replicate 2 | robust z-score, replicate 3 | activity call
CAD | SID442890249 | 0.945 | 0.469 | -0.0843 | inactive
ZGRF1 (zinc finger GRF-type containing 1) | SID442900926 | 0.123 | -1.99 | -0.615 | inactive
ZGRF1 (zinc finger GRF-type containing 1) | SID442901377 | -0.628 | -1.19 | -0.862 | inactive
CCDC62 (coiled-coil domain containing 62) | SID442903772 | -1.21 | -1.46 | -1.5 | inactive
DAP (death associated protein) | SID442895808 | 0.38 | -1.18 | 0.172 | inactive
AGPS (alkylglycerone phosphate synthase) | SID442888512 | 0.247 | 0.855 | 1.02 | inactive
C6orf132 (chromosome 6 open reading frame 132) | SID442885213 | 1.48 | 1.17 | 2.21 | inactive
IGSF23 (immunoglobulin superfamily member 23) | SID442900585 | -0.511 | -1.18 | -0.648 | inactive
FOXM1 (forkhead box M1) | SID442903126 | -1.22 | -1.28 | -1.17 | inactive
NEK7 (NIMA related kinase 7) | SID442903252 | -0.847 | -1.59 | -1.32 | inactive
CHMP1A (charged multivesicular body protein 1A) | SID442902630 | -1.16 | -1.25 | -0.938 | inactive
ATG9B (autophagy related 9B) | SID442903991 | -1.3 | -1.51 | -1.56 | inactive
GMFG (glia maturation factor gamma) | SID442886974 | 0.264 | 1.83 | 0.96 | inactive
PIK3C2G | SID442889921 | 0.388 | 1.37 | -0.296 | inactive
TMED4 (transmembrane p24 trafficking protein 4) | SID442901123 | -0.779 | -0.958 | -0.824 | inactive
NMNAT1 (nicotinamide nucleotide adenylyltransferase 1) | SID442903582 | -0.941 | -1.61 | -1.45 | inactive
LINC00158 (long independently transcribed non-coding RNA 158) | SID442890154 | 0.565 | 0.34 | 0.462 | inactive
LOC441429 (retired record) | SID442889603 | 0.189 | 0.513 | 0.903 | inactive
GRB14 (growth factor receptor bound protein 14) | SID442901000 | -1.19 | -0.241 | -1.08 | inactive
ARHGAP27 (Rho GTPase activating protein 27) | SID442884768 | -1.8 | -2.64 | -1.66 | inactive
ARHGAP27 (Rho GTPase activating protein 27) | SID442904049 | -1.83 | -1.88 | -0.712 | inactive
NHP2 (NHP2 ribonucleoprotein) | SID442898640 | 0.503 | -1.58 | -0.487 | inactive
LOC390944 (retired record) | SID442897198 | -0.352 | -0.492 | -0.229 | inactive
KRT37 (keratin 37) | SID442902557 | -1.77 | -0.529 | -1.01 | inactive
NOL8 (nucleolar protein 8) | SID442890736 | 0.572 | 1.1 | -0.542 | inactive
SLC7A9 | SID442884573 | -2.66 | -2.7 | -2.52 | active
PPP1CB (protein phosphatase 1 catalytic subunit beta) | SID442891215 | 0.0765 | 0.12 | 0.752 | inactive
ARL17A (ARF like GTPase 17A) | SID442886919 | 1.88 | 0.56 | 0.652 | inactive
LOC100288637 (OTU deubiquitinase 7A pseudogene) | SID442887792 | 0.937 | 0.652 | 0.931 | inactive
RAB38 (RAB38, member RAS oncogene family) | SID442897918 | 0.125 | -0.749 | -0.693 | inactive
DNM1 (dynamin 1) | SID442884901 | 2.15 | 1.49 | 1.74 | inactive
CCT8 (chaperonin containing TCP1 subunit 8) | SID442892543 | 0.254 | 0.218 | -0.0106 | inactive
BTNL2 (butyrophilin like 2) | SID442896144 | 0.531 | -1.01 | -0.251 | inactive
PKD1L1 | SID442895296 | -0.453 | 0.354 | -0.365 | inactive
